According to PubChem BioAssay AID720504 (National Center for Advancing Translational Sciences (NCATS), 2013):
Where “and” joins values, the source holds several entries; their conditions need not be identical. Equal values may be shown once. Among all 360,000 compounds or so, about 10,000 (2.8%) were called active. This list was built around the results that the source calls inconclusive (neither active nor inactive); the mix of calls is not that of the screen. Calls follow the shape of the dose curve; as a rule, active = well fitted inhibition curve with a large enough effect; inconclusive = small, poorly fitted or top-dose-only effect; inactive = flat fitted curve, though single readings scatter. A potency beside an inconclusive call is a rough fit, not a confirmed value.

Amino acid sequences for entries named in this document (tags omitted).
UniProt P53350, whole entry, looked up: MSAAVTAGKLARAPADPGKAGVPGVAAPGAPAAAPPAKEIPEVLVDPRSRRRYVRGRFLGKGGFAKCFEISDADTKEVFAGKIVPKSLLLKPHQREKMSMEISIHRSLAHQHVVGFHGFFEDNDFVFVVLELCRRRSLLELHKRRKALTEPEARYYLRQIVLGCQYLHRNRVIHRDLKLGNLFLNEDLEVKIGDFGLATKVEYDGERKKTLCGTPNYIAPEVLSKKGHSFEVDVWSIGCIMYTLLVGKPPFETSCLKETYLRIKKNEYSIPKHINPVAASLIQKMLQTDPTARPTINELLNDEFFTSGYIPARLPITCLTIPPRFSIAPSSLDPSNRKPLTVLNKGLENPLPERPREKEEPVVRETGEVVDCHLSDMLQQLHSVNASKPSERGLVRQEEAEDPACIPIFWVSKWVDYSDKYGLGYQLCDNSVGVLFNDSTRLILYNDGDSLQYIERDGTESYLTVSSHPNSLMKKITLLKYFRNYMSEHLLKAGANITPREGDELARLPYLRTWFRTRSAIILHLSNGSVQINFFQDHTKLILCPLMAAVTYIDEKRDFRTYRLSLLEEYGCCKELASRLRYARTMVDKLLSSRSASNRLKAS

Target: Serine/threonine-protein kinase PLK1 (Homo sapiens) (UniProt P53350)
Test: qHTS for Inhibitors of PLK1-PDB (polo-like kinase 1 - polo-box domain): Primary Screen; also: nearly all actives have a fitted effect of over 65% in size; as to max response, negative = inhibition: series mostly up to about 57 µM
Conditions: Plk1 PBD binding of FITC phosphopeptide, fluorescence polarization
% is scaled to controls: 0 for no effect and ±100 for the full control effect; potency is read from the fitted curve at half-maximal effect.

Question: For `O=CNn1cnc2c(oc3nc(-c4ccccc4)cc(-c4ccco4)c32)c1=O`, which Potency is on record?
Answer: inconclusive: 26.7 µM [inhibitor, single point]

Question: With `Cc1ccc(S(=O)(=O)NN2C(=O)/C(=C/c3cccs3)SC2=S)cc1` as the molecule, how does the Potency read?
Answer: inconclusive: 23.8 µM [inhibitor, partial curve]

Question: `OCCn1c(CSc2nnc(-c3ccco3)n2-c2ccccc2)nc2ccc(Cl)cc21` was tested. Which max response, negative = inhibition did it give?
Answer: inactive: -19.5%

Question: How did the max response, negative = inhibition turn out when `CC(=O)c1cccc(NC(=O)c2sc(Cl)nc2C)c1` was run?
Answer: inactive: -5.67%

Question: With `Cc1ccc(-c2nn(CC(=O)NCc3cc(-c4nn(C)c(=O)c5ccccc45)ccc3C)c(=O)c3ccccc23)cc1` as the molecule, how does the max response, negative = inhibition read?
Answer: inactive: -0.778%

Question: `COc1ccc(CN=Cc2[nH]c3ccc(Br)c(Cl)c3c2O)cc1` was tested. Which Potency did it give?
Answer: inconclusive: 7.52 µM [inhibitor, partial curve]

Question: With `COc1ccc(NC(=O)/C(C#N)=C\c2ccc(OCc3ccc(C(=O)O)cc3)c(OC)c2)cc1` as the molecule, how does the Potency read?
Answer: inconclusive: 18.9 µM [inhibitor, partial curve]

Question: `Cn1c(=O)n(Cc2ccccc2F)c(=O)c2c1nc1n2CCN1Cc1ccco1` was tested. Which max response, negative = inhibition did it give?
Answer: inactive: -6.34%

Question: With `NS(=O)(=O)c1ccc(NC(=S)NC2CC2)cc1` as the molecule, how does the Potency read?
Answer: inconclusive: 23.8 µM [inhibitor, partial curve]

Question: How did the max response, negative = inhibition turn out when `Cc1ccc(-c2nn(-c3ccccc3)cc2/C=N/n2c(-c3ccncc3)n[nH]c2=S)cc1` was run?
Answer: inactive: -5.52%

Question: How did the max response, negative = inhibition turn out when `O=C1C=C(c2cccc(Br)c2)C[C@@H](c2ccc(Cl)cc2)C1` was run?
Answer: inactive: -3.9%

Question: Which Potency does the source give for `CCn1nc(NC(=O)c2ccncc2)c2cc3cc(C)ccc3nc21` here?
Answer: active: 3.77 µM

Question: `Cc1cc(N2C(=O)C(O)=C(C(=O)c3cccs3)C2c2cccc(Br)c2)no1` (configuration not stated) was tested. Which Potency did it give?
Answer: inconclusive: 26.7 µM [inhibitor, single point]

Question: `C=CCn1c(SCn2nnc3ccccc3c2=O)nc2scc(-c3cccs3)c2c1=O` was tested. Which max response, negative = inhibition did it give?
Answer: inactive: 1.05%

Question: How did the Potency turn out when `Nc1ccc(S(=O)(=O)Nc2nccs2)cc1N=Nc1ccccc1[N+](=O)[O-]` was run?
Answer: active: 29.9 µM

Question: Which Potency does the source give for `O=S(=O)(c1ccc(NC(=S)Nc2ccc(OC(F)F)cc2)cc1)N1CCOCC1` here?
Answer: inconclusive: 29.9 µM [inhibitor, partial curve]

Question: With `CS(=O)c1ccccc1COC(=O)Nc1cccc(Cl)c1` (configuration not stated) as the molecule, how does the Potency read?
Answer: inconclusive: 23.8 µM [inhibitor, single point]

Question: For `COc1ccc(-c2csc(Nc3ccc(S(=O)(=O)Nc4cc(C)on4)cc3)n2)cc1C`, which Potency is on record?
Answer: inconclusive: 26.7 µM [inhibitor, single point]

Question: `COCCCn1c2nc3ccccc3nc2c2c(=O)n(-c3ccccc3OC)cnc21` was tested. Which max response, negative = inhibition did it give?
Answer: inactive: -9.72%

Question: Which Potency does the source give for `O=C1NC(c2ccccc2)N=C2Oc3ccccc3C=C12` (configuration not stated) here?
Answer: inconclusive: 26.7 µM [inhibitor, single point]

Question: Which max response, negative = inhibition does the source give for `Cc1ccc2nc(-c3ccco3)c(Cc3cccc(Cl)c3)n2c1` here?
Answer: inconclusive: -33.4% [inhibitor]

Question: Which Potency does the source give for `O=C(NCc1cccc(F)c1)c1cccc2c1C(=O)c1ccc(N3CCC(Cc4ccccc4)CC3)cc1S2(=O)=O` here?
Answer: inconclusive: 21.2 µM [inhibitor, partial curve]

Question: With `Cc1nc2nc(SCC(=O)NCCCN3CCCCC3)nn2c(C)c1Cc1ccccc1` as the molecule, how does the max response, negative = inhibition read?
Answer: inactive: -6.15%

Question: With `O=C(O)c1ccc(Cl)c(NC(=S)NC(=O)c2cccc(COc3ccccc3)c2)c1` as the molecule, how does the Potency read?
Answer: inconclusive: 23.8 µM [inhibitor, partial curve]

Question: How did the max response, negative = inhibition turn out when `CC1CN(CCOc2ccc(F)cc2)CC(C)O1` (configuration not stated) was run?
Answer: inactive: 1.5%

Question: With `O=C(NCCSCc1ccccc1)c1cc(S(=O)(=O)N2CCOCC2)ccc1F` as the molecule, how does the Potency read?
Answer: inconclusive: 26.7 µM [inhibitor, single point]

Question: With `CC(Nc1n[nH]c(=S)[nH]c1=O)C(=O)OCc1ccccc1` (configuration not stated) as the molecule, how does the Potency read?
Answer: inconclusive: 21.2 µM [inhibitor, partial curve]

Question: Which Potency does the source give for `CC(NCC(O)COCCC12CC3CC(CC(C3)C1)C2)c1ccccc1` (configuration not stated) here?
Answer: active: 29.9 µM

Question: With `Cc1nn(C)cc1S(=O)(=O)N1CCN(Cc2ccc(F)cc2Cl)CC1` as the molecule, how does the Potency read?
Answer: inconclusive: 23.8 µM [inhibitor, single point]

Question: How did the Potency turn out when `COc1ccc(C2C(C(=O)c3cccs3)=C(O)C(=O)N2c2nncs2)cc1` (configuration not stated) was run?
Answer: inconclusive: 18.9 µM [inhibitor, partial curve]

Question: For `N#CC1=C(N)C2=C(N3CCCCC3)CCCC2C1(C#N)C#N` (configuration not stated), which Potency is on record?
Answer: inconclusive: 21.2 µM [inhibitor, partial curve]

Question: For `[O-]/C(=C(\C(=S)Nc1ccc(Cl)cc1)[n+]1ccccc1)c1ccc(OC(F)F)cc1`, which Potency is on record?
Answer: inconclusive: 18.9 µM [inhibitor, partial curve]

Question: With `O=C1CCCN1CCCNC(=S)Nc1ccc(Br)cc1Cl` as the molecule, how does the Potency read?
Answer: inconclusive: 26.7 µM [inhibitor, single point]

Question: Which Potency does the source give for `CCn1nc(C)c(CNC(=O)c2cc(COc3cncc(Cl)c3)on2)c1C` here?
Answer: active: 23.8 µM

Question: How did the Potency turn out when `CC(=O)c1ccc(-c2ccc(C(=O)Nc3nc(-c4ccccn4)cs3)o2)cc1` was run?
Answer: active: 26.7 µM

Question: `Cc1ccc(S(=O)(=O)n2nc(OC(=O)c3ccccc3F)cc2N)cc1` was tested. Which max response, negative = inhibition did it give?
Answer: inconclusive: -30.3% [inhibitor]

Question: Which Potency does the source give for `O=C(Oc1cccnc1)c1cc(S(=O)(=O)N2CCOCC2)ccc1Cl` here?
Answer: inconclusive: 21.2 µM [inhibitor, partial curve]

Question: `Cc1ccccc1S(=O)c1ccccc1C(=O)O` (configuration not stated) was tested. Which Potency did it give?
Answer: inconclusive: 15 µM [inhibitor, partial curve]

Question: With `O=C(CSc1nnc(-c2ccncc2)o1)NCc1ccccc1Cl` as the molecule, how does the Potency read?
Answer: inconclusive: 21.2 µM [inhibitor, single point]

Question: Which max response, negative = inhibition does the source give for `O=C(Cc1ccc(Br)cc1)N1CCCCCC1` here?
Answer: inactive: -2.55%

Question: With `COc1ccc(Cc2n[nH]c(=S)n2C)cc1Br` as the molecule, how does the max response, negative = inhibition read?
Answer: inactive: -7.43%

Question: With `O=C(CCS(=O)(=O)c1ccc(Br)cc1)NCCc1ccc(Cl)cc1` as the molecule, how does the Potency read?
Answer: inconclusive: 26.7 µM [inhibitor, partial curve]

Question: `CC1(C)OC(=O)C(=Cc2ccc(-c3ccc(Cl)c(C(=O)O)c3)o2)C(=O)O1` was tested. Which Potency did it give?
Answer: active: 1.68 µM

Question: How did the Potency turn out when `N#CC1=C(SCc2ccccc2)NC2=C(C(=O)CCC2)C1c1ccc2c(c1)OCO2` (configuration not stated) was run?
Answer: inconclusive: 26.7 µM [inhibitor, partial curve]

Question: How did the Potency turn out when `CC(C)Sc1ccc(C(=O)Nc2ccc(F)cc2F)cn1` was run?
Answer: active: 18.9 µM

Question: Which Potency does the source give for `CCc1ccccc1NC(=O)CCS(=O)(=O)c1ccc(OC)cc1` here?
Answer: inconclusive: 18.9 µM [inhibitor, partial curve]

Question: With `O=C(O)C1CCN(C(=O)CSc2nc3ccccc3s2)CC1` as the molecule, how does the Potency read?
Answer: active: 23.8 µM

Question: Which Potency does the source give for `Cc1ccc(OCc2nnc(SC(C)C(=O)O)n2Cc2ccccc2)cc1` (configuration not stated) here?
Answer: inconclusive: 33.6 µM [inhibitor, single point]

Question: How did the max response, negative = inhibition turn out when `CCC(CC)NCC(O)COc1ccc(Br)cc1` (configuration not stated) was run?
Answer: inactive: -5.51%

Question: `COc1cc2c(C#N)c(N3CCCC3)nc(N)c2c(N)n1` was tested. Which max response, negative = inhibition did it give?
Answer: inactive: -24.4% and inactive: -11.4%

Question: `O=C(O)C1CCC(N2C(=O)c3cccc([N+](=O)[O-])c3C2=O)CC1` (configuration not stated) was tested. Which max response, negative = inhibition did it give?
Answer: inactive: -1.76%

Question: For `Cc1ccc2nc(-c3ccc(NC(=O)CSCC(=O)O)cc3)sc2c1`, which Potency is on record?
Answer: inconclusive: 75.2 µM [inhibitor, partial curve]

Question: Which Potency does the source give for `O=C(Cn1ccc2cc(S(=O)(=O)N3CCCC3)ccc21)NCc1ccco1` here?
Answer: inconclusive: 26.7 µM [inhibitor, partial curve]

Question: `CSC(=S)N/N=C(\C)c1ccc(Br)cc1` was tested. Which Potency did it give?
Answer: inconclusive: 23.8 µM [inhibitor, single point]

Question: `CCCn1c(CCC(=O)O)ccc1-c1cccs1` was tested. Which max response, negative = inhibition did it give?
Answer: inactive: -8.6%

Question: For `O=C(c1cccc(F)c1)N1CCN(c2ccc([N+](=O)[O-])c(N3CCCCC3)c2)CC1`, which max response, negative = inhibition is on record?
Answer: inactive: -8.34%

Question: For `Cc1ccc(S(=O)(=O)Nc2ccc(Cl)cc2C(=O)c2ccccc2)cc1`, which Potency is on record?
Answer: inconclusive: 29.9 µM [inhibitor, partial curve]

Question: `CCOC(=O)c1c(-c2ccc(C)o2)csc1NC(=S)NC(=O)N(C)C` was tested. Which Potency did it give?
Answer: inconclusive: 20 µM [inhibitor, single point]

Question: How did the Potency turn out when `Cc1ccc(CN(C)C2CCN(C)CC2)cc1` was run?
Answer: active: 23.8 µM

Question: Which max response, negative = inhibition does the source give for `CC(=O)N1CCN(c2ccccc2NC(=O)COc2cc(C)ccc2C(C)C)CC1` here?
Answer: inactive: -7.25%

Question: `CCOC(=O)CSc1nc2c(c(=O)[nH]c(=O)n2C)n1C/C=C(/C)Cl` was tested. Which Potency did it give?
Answer: inconclusive: 15 µM [inhibitor, partial curve]

Question: For `S=C(NCc1ccccc1)NC1CCCc2ccccc21` (configuration not stated), which Potency is on record?
Answer: inconclusive: 21.2 µM [inhibitor, partial curve]

Question: For `Cc1cc(NC(=O)c2cc(-c3ccc(C)s3)nc3ccccc23)no1`, which max response, negative = inhibition is on record?
Answer: inactive: -11.3%

Question: `COc1ccc(Cc2nnc(N)s2)cc1` was tested. Which Potency did it give?
Answer: inconclusive: 29.9 µM [inhibitor, partial curve]

Question: For `O=C(NNC(=S)NC(=O)c1ccccc1)c1ccc([N+](=O)[O-])cc1`, which Potency is on record?
Answer: active: 26.7 µM

Question: With `CCOCCCNC(=S)NCCCNc1nc2cc3c(cc2cc1C#N)OCO3` as the molecule, how does the Potency read?
Answer: inconclusive: 37.7 µM [inhibitor, single point]

Question: For `CC1=C(C#N)C(=O)NC(=O)/C1=C/c1ccc(-c2ccc(S(N)(=O)=O)cc2)o1`, which Potency is on record?
Answer: active: 9.47 µM

Question: `O=C(O)CCc1ccc(-c2cccs2)n1NC(=O)c1ccc(Cl)cc1Cl` was tested. Which max response, negative = inhibition did it give?
Answer: inactive: -16.2%

Question: Which Potency does the source give for `O=C1c2ccccc2C(=O)N1CN(C(=O)c1ccccc1)c1ccc(O)cc1` here?
Answer: active: 21.2 µM

Question: How did the max response, negative = inhibition turn out when `O=C(Cn1cnc2ccccc2c1=O)Nc1nc2ccccc2s1` was run?
Answer: inactive: -5.08%

Question: `Cc1nnc(NC(=O)CCSCCC(=O)Nc2nnc(C)s2)s1` was tested. Which Potency did it give?
Answer: inconclusive: 26.7 µM [inhibitor, partial curve]

Question: How did the Potency turn out when `CCCn1c(CC)nc([N+](=O)[O-])c1S(=O)(=O)c1ccccc1` was run?
Answer: inconclusive: 26.7 µM [inhibitor, single point]
